Results as given in the supplement of paper PMC4604168 (melanoma cell lines).
The other results are listed elsewhere or left out. Repeats are few or missing, and single values can be far off.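 Imaging used 1,536-well plates; nuclei positive for cleaved PARP by antibody were divided by total DNA-stained nuclei to yield the apoptosis fraction. Doses for screening kept most cells viable, and cell lines differ markedly in resting and induced cleaved-PARP levels.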

Assays:
Assay in all cases: cleaved PARP positive nuclei fraction relative to DMSO control; melanoma cells; higher = more apoptosis
Details in all cases: library dose: low library concentration; 72 h
[1] = tested on: MZ2-MEL
[2] = tested on: MeWo
[3] = tested on: RPMI7951
[4] = tested on: RVH-421
[5] = tested on: SkMel28
[6] = tested on: SkMel30
[7] = tested on: SkMel5
[8] = tested on: UACC257
[9] = tested on: UACC62

## COc1ccc2c(c1)CCC1C2CCC2(C)C(NCCCCCCN3C(=O)C=CC3=O)CCC12 (stereo not drawn) + Cc1cc([N+](=O)[O-])ccc1NS(=O)(=O)c1cc(Cl)ccc1Cl [FH535] (first compound 0.4 µM, partner dose 1 µM)
[1]
  cleaved PARP positive nuclei fraction: 86.3%
[2]
  cleaved PARP positive nuclei fraction: 233%
[3]
  cleaved PARP positive nuclei fraction: 42.3%
[4]
  cleaved PARP positive nuclei fraction: 32.2%
[5]
  cleaved PARP positive nuclei fraction: 160%
[6]
  cleaved PARP positive nuclei fraction: 22.8%
[7]
  cleaved PARP positive nuclei fraction: 42.3%
[8]
  cleaved PARP positive nuclei fraction: 55%
[9]
  cleaved PARP positive nuclei fraction: 35.2%

## COc1cc2c(Oc3ccc4[nH]c(C)cc4c3F)ncnc2cc1OCCCN1CCCC1 [cediranib] + COc1ccc(-c2ccc3c(N4CCOCC4)nc(N4C[C@@H](C)O[C@@H](C)C4)nc3n2)cc1CO [KU0063794] (first compound 0.4 µM, partner dose 0.02 µM)
[1]
  cleaved PARP positive nuclei fraction: 106%
[2]
  cleaved PARP positive nuclei fraction: 93.4%
[3]
  cleaved PARP positive nuclei fraction: 34.7%
[4]
  cleaved PARP positive nuclei fraction: 86%
[5]
  cleaved PARP positive nuclei fraction: 58.6%
[6]
  cleaved PARP positive nuclei fraction: 166%
[7]
  cleaved PARP positive nuclei fraction: 27.9%
[8]
  cleaved PARP positive nuclei fraction: 197%
[9]
  cleaved PARP positive nuclei fraction: 208%

## COc1cc2ncnc(Nc3ccc(Oc4ccccc4)cc3)c2cc1OC + Cn1cc(/C=C2\C(=O)Nc3cccnc32)c2ccccc21 [GW441756] (first compound 2 µM, partner dose 0.4 µM)
[1]
  cleaved PARP positive nuclei fraction: 93%
[2]
  cleaved PARP positive nuclei fraction: 83.3%
[3]
  cleaved PARP positive nuclei fraction: 77.9%
[4]
  cleaved PARP positive nuclei fraction: 54.6%
[5]
  cleaved PARP positive nuclei fraction: 84.9%
[6]
  cleaved PARP positive nuclei fraction: 21.2%
[7]
  cleaved PARP positive nuclei fraction: 175%
[8]
  cleaved PARP positive nuclei fraction: 184%
[9]
  cleaved PARP positive nuclei fraction: 126%

## O=S(=O)(c1ccccc1)N(CC(F)(F)F)c1ccc(C(O)(C(F)(F)F)C(F)(F)F)cc1 + O=C1NC(=O)/C(=C/c2ccc(-c3ccc(F)cc3O)o2)S1 [AS252424] (first compound 1.4 µM, partner dose 1 µM)
[1]
  cleaved PARP positive nuclei fraction: 72.3%
[2]
  cleaved PARP positive nuclei fraction: 86.5%
[3]
  cleaved PARP positive nuclei fraction: 114%
[4]
  cleaved PARP positive nuclei fraction: 148%
[5]
  cleaved PARP positive nuclei fraction: 232%
[6]
  cleaved PARP positive nuclei fraction: 16%
[7]
  cleaved PARP positive nuclei fraction: 48.6%
[8]
  cleaved PARP positive nuclei fraction: 41.9%
[9]
  cleaved PARP positive nuclei fraction: 36.3%

## COC(=O)c1sccc1S(=O)(=O)Nc1ccc(Nc2ccccc2)cc1OC + O=S(=O)(c1ccccc1)N(CC(F)(F)F)c1ccc(C(O)(C(F)(F)F)C(F)(F)F)cc1 [T0901317] (first compound 1 µM, partner dose 1.4 µM)
[1]
  cleaved PARP positive nuclei fraction: 67.9%
[2]
  cleaved PARP positive nuclei fraction: 48.5%
[3]
  cleaved PARP positive nuclei fraction: 40.9%
[4]
  cleaved PARP positive nuclei fraction: 66.6%
[5]
  cleaved PARP positive nuclei fraction: 204%
[6]
  cleaved PARP positive nuclei fraction: 32.4%
[7]
  cleaved PARP positive nuclei fraction: 20.9%
[8]
  cleaved PARP positive nuclei fraction: 128%
[9]
  cleaved PARP positive nuclei fraction: 132%

## COc1ccc(COc2ccc(Cc3cnc(N)nc3N)cc2OC)cc1 + COc1cc(N2CCC(N3CCN(C)CC3)CC2)ccc1Nc1ncc(Cl)c(Nc2ccccc2S(=O)(=O)C(C)C)n1 [NVP-TAE684] (first compound 1 µM, partner dose 0.08 µM)
[1]
  cleaved PARP positive nuclei fraction: 85.5%
[2]
  cleaved PARP positive nuclei fraction: 114%
[3]
  cleaved PARP positive nuclei fraction: 81%
[4]
  cleaved PARP positive nuclei fraction: 75.6%
[5]
  cleaved PARP positive nuclei fraction: 285%
[6]
  cleaved PARP positive nuclei fraction: 27.4%
[7]
  cleaved PARP positive nuclei fraction: 119%
[8]
  cleaved PARP positive nuclei fraction: 81.2%
[9]
  cleaved PARP positive nuclei fraction: 80.8%

## CCc1ccc(CCOc2ccc(CC3SC(=O)NC3=O)cc2)nc1 (stereo not drawn) [pioglitazone] + O=C(Nc1ccccc1)c1cc([N+](=O)[O-])ccc1Cl [GW9662] (first compound 2 µM, partner dose 2 µM)
[1]
  cleaved PARP positive nuclei fraction: 121%
[2]
  cleaved PARP positive nuclei fraction: 52.5%
[3]
  cleaved PARP positive nuclei fraction: 74.7%
[4]
  cleaved PARP positive nuclei fraction: 97.6%
[5]
  cleaved PARP positive nuclei fraction: 139%
[6]
  cleaved PARP positive nuclei fraction: 93%
[7]
  cleaved PARP positive nuclei fraction: 19.2%
[8]
  cleaved PARP positive nuclei fraction: 107%
[9]
  cleaved PARP positive nuclei fraction: 47.7%

## COc1ccc2c(c1)CCC1C2CCC2(C)C(NCCCCCCN3C(=O)C=CC3=O)CCC12 (stereo not drawn) + Cn1cc(/C=C2\C(=O)Nc3cccnc32)c2ccccc21 [GW441756] (first compound 0.4 µM, partner dose 0.4 µM)
[1]
  cleaved PARP positive nuclei fraction: 147%
[2]
  cleaved PARP positive nuclei fraction: 153%
[3]
  cleaved PARP positive nuclei fraction: 119%
[4]
  cleaved PARP positive nuclei fraction: 64.1%
[5]
  cleaved PARP positive nuclei fraction: 89.2%
[6]
  cleaved PARP positive nuclei fraction: 47.1%
[7]
  cleaved PARP positive nuclei fraction: 176%
[8]
  cleaved PARP positive nuclei fraction: 119%
[9]
  cleaved PARP positive nuclei fraction: 200%

## O=S(=O)(c1ccccc1)N(CC(F)(F)F)c1ccc(C(O)(C(F)(F)F)C(F)(F)F)cc1 + COc1cc2ncnc(Nc3ccc(Oc4ccccc4)cc3)c2cc1OC [SrcI1] (first compound 1.4 µM, partner dose 2 µM)
[1]
  cleaved PARP positive nuclei fraction: 84.1%
[2]
  cleaved PARP positive nuclei fraction: 109%
[3]
  cleaved PARP positive nuclei fraction: 73.5%
[4]
  cleaved PARP positive nuclei fraction: 71.5%
[5]
  cleaved PARP positive nuclei fraction: 135%
[6]
  cleaved PARP positive nuclei fraction: 64.4%
[7]
  cleaved PARP positive nuclei fraction: 31.8%
[8]
  cleaved PARP positive nuclei fraction: 133%
[9]
  cleaved PARP positive nuclei fraction: 110%

## CCc1ccc(CCOc2ccc(CC3SC(=O)NC3=O)cc2)nc1 (stereo not drawn) [pioglitazone] + COC(=O)c1sccc1S(=O)(=O)Nc1ccc(Nc2ccccc2)cc1OC [GSK0660] (first compound 2 µM, partner dose 1 µM)
[1]
  cleaved PARP positive nuclei fraction: 132%
[2]
  cleaved PARP positive nuclei fraction: 91.2%
[3]
  cleaved PARP positive nuclei fraction: 81.6%
[4]
  cleaved PARP positive nuclei fraction: 81.6%
[5]
  cleaved PARP positive nuclei fraction: 134%
[6]
  cleaved PARP positive nuclei fraction: 18.4%
[7]
  cleaved PARP positive nuclei fraction: 54.8%
[8]
  cleaved PARP positive nuclei fraction: 258%
[9]
  cleaved PARP positive nuclei fraction: 101%

## CCN(CC)CCCCNc1ncc2cc(-c3cc(OC)cc(OC)c3)c(NC(=O)NC(C)(C)C)nc2n1 + COc1cc2ncnc(Nc3ccc(Oc4ccccc4)cc3)c2cc1OC [SrcI1] (first compound 0.1 µM, partner dose 2 µM)
[1]
  cleaved PARP positive nuclei fraction: 134%
[2]
  cleaved PARP positive nuclei fraction: 118%
[3]
  cleaved PARP positive nuclei fraction: 79.3%
[4]
  cleaved PARP positive nuclei fraction: 79.2%
[5]
  cleaved PARP positive nuclei fraction: 123%
[6]
  cleaved PARP positive nuclei fraction: 257%
[7]
  cleaved PARP positive nuclei fraction: 55.4%
[8]
  cleaved PARP positive nuclei fraction: 17.2%
[9]
  cleaved PARP positive nuclei fraction: 77.3%

## COc1cc2c(Oc3ccc4[nH]c(C)cc4c3F)ncnc2cc1OCCCN1CCCC1 [cediranib] + Oc1cc(-c2nc(-c3ccccc3)[nH]c2-c2ccncc2)ccc1Cl [L779450] (first compound 0.4 µM, partner dose 0.2 µM)
[1]
  cleaved PARP positive nuclei fraction: 54.9%
[2]
  cleaved PARP positive nuclei fraction: 109%
[3]
  cleaved PARP positive nuclei fraction: 86.6%
[4]
  cleaved PARP positive nuclei fraction: 128%
[5]
  cleaved PARP positive nuclei fraction: 126%
[6]
  cleaved PARP positive nuclei fraction: 138%
[7]
  cleaved PARP positive nuclei fraction: 90.1%
[8]
  cleaved PARP positive nuclei fraction: 201%
[9]
  cleaved PARP positive nuclei fraction: 273%
